Assay results taken from PMC7733513.
Like-named read-outs stand apart in the source and are kept apart here. Results are given in words; binding and its absence hold for the method and conditions named. Binding seen in cells or lysates may run through a third protein. A result given as binding can be weak or reduced; the word gives no strength. Blank lines part the entries; values can stand above or below the molecule they belong to.

By UniProt entry, the sequences of proteins in these tests, tags left out. Where a name states a change or a piece, a line headed by the entry shows the natural chain unless it says otherwise.
UniProt Q02383: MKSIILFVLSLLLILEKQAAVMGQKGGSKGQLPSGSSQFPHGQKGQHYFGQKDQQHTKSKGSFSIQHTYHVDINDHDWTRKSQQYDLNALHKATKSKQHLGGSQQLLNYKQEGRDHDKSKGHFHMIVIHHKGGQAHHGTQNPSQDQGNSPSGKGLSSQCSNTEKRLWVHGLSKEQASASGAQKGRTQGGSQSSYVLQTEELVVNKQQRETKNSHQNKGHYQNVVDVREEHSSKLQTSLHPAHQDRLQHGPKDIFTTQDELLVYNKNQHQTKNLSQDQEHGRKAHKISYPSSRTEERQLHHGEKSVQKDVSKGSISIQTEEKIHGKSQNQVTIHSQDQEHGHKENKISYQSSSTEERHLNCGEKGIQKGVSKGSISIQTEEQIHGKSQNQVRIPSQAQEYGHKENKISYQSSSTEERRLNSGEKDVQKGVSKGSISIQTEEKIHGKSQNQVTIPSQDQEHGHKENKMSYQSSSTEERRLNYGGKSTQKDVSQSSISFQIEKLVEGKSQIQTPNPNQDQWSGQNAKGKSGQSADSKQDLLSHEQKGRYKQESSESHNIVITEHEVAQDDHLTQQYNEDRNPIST

Tests used:
[1] = molecular target: GST-SEMG2 (truncated SEMG2 lacking the signal peptide, 23-562 a.a.) (human) (UniProt Q02383); experiment: pull-down; 50 µg GST-SEMG1 or GST-SEMG2 (GST as control) incubated 3 h with MCF7 cell extract pre-incubated with GST; western blot with antibodies against LDHA, PKM2 and IDH2; only the target purified
[2] = molecular target: GST-SEMG2 (truncated SEMG2 lacking the signal peptide, 23-562 a.a.) (human) (UniProt Q02383); experiment: as above; remark: listed apart in the source

binding [1]: binds
Molecule: pyruvate kinase M2 (PKM2), endogenous in MCF7 cell extract (from UniProt P14618-1 1-531) (enzyme)

binding [2]: binds
B1: IDH2, endogenous in MCF7 cell extract (enzyme, UniProt P48735 40-452)
chain: ADKRIKVAKPVVEMDGDEMTRIIWQFIKEKLILPHVDIQLKYFDLGLPNRDQTDDQVTIDSALATQKYSVAVKCATITPDEARVEEFKLKKMWKSPNGTIRNILGGTVFREPIICKNIPRLVPGWTKPITIGRHAHGDQYKATDFVADRAGTFKMVFTPKDGSGVKEWEVYNFPAGGVGMGMYNTDESISGFAHSCFQYAIQKKWPLYMSTKNTILKAYDGRFKDIFQEIFDKHYKTDFDKNKIWYEHRLIDDMVAQVLKSSGGFVWACKNYDGDVQSDILAQGFGSLGLMTSVLVCPDGKTIEAEAAHGTVTRHYREHQKGRPTSTNPIASIFAWTRGLEHRGKLDGNQDLIRFAQMLEKVCVETVESGAMTKDLAGCIHGLSNVKLNEHFLNTTDFLDTIKSNLDRALGRQ
